Two molecules from patent US20060115428A1 (MorphoSys, published 2006) can be followed below.

Protein sequences, listed by entry. Tags and fused reporters are not part of them. Lines headed by an entry give the natural chain unless they say otherwise; changes in a name come on top. Chains listed by the source or under a name are the forms on record and can include a tag or linker.
recombinant fibronectin domain ED-B (His)6 (P02751, form named): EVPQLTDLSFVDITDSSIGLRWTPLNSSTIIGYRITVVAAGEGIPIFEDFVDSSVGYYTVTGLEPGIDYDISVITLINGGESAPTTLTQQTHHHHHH

The assay has as its target recombinant fibronectin domain ED-B (His)6 (human) (UniProt P02751). Description: ELISA, immunohistochemistry and cell adhesion test. For orientation: In an ELISA, binding on a coated surface is turned into a signal by an enzyme label.

Results are given in words; binding and its absence hold for the method and conditions named. Some entries that bind do so weakly or less than the wild type.

B1: MOR03055 (Fab, V domains shown)
VH: QVQLQESGPGLVKPGETLSLTCTVSGGSISSYYWSWIRQAPGKGLEWIGIGHWGSTQYNPSLKGRVTISVDTSKNQFSLKLSSVTAEDTAVYYCARFFDVWGQGTLVTVSS
VL: DIVLTQPPSVSGAPGQRVTISCSGSSSNIGSNTVRWYQQLPGTAPKLLIYSNNKRPSGVPDRFSGSKSGTSASLAITGLQSEDEADYYCQAWTRAHRYPVFGGGTKLTVLG
notes: Fab, L-CDR3 derivative of MOR02619
Regarding B1, the binding entry is “binds”.

B2: MOR03069 (Fab, V domains shown)
VH: B1 VH
VL: DIVLTQPPSVSGAPGQRVTISCSGSSSNIGSNTVRWYQQLPGTAPKLLIYSNNKRPSGVPDRFSGSKSGTSASLAITGLQSEDEADYYCWTGMSYHFVFGGGTKLTVLG
notes: as for B1
As to B2, the binding entry is on record as “binds”.
